The target in the assay is hNKG2D-Fc (human NKG2D 78-216 with C-terminal long huFc-Flag tag) (human). The experiment in a line: phage ELISA, recombinant NKG2D (PUR4928) coated, anti-M13-HRP detection. In general terms: ELISA stands for enzyme-linked immunosorbent assay.

These are yes or no findings as the source states them, for the method shown. Some entries that bind do so weakly or less than the wild type. Tags and fused reporters may be left off the sequences shown.

B1: human ULBP6 displayed on M13 phage (ULBP6-HA-pIII) (protein, not shown: large carriers)
chain: RRDDPHSLCYDITVIPKFRPGPRWCAVQGQVDEKTFLHYDCGNKTVTPVSPLGKKLNVTMAWKAQNPVLREVVDILTEQLLDIQLENYTPKEPLTLQARMSCEQKAEGHSSGSWQFSIDGQTFLLFDSEKRMWTTVHPGARKMKEKWENDKDVAMSFHYISMGDCIGWLEDFLMGMDSTLEPSAGAPLAMSSGYPYDVPDYA
As to B1, the binding result was “binds”.
